These results are taken from PMC10908827, “Structural insight into an Arl1–ArfGEF complex involved in Golgi recruitment of a GRIP-domain golgin” (Nature Communications, 2024).

Changes are numbered by the printed parent chain. Results are given in words; binding and its absence hold for the method and conditions named. In cells and extracts the contact can be indirect. Some results given as binding are weak or reduced against the parent protein; the word gives no strength. Sequences can lack the tags named with a protein.

Assay [1] addresses T1, 3xFLAG tagged Gea2 P71A (S. cerevisiae) (UniProt P39993).
T1 sequence: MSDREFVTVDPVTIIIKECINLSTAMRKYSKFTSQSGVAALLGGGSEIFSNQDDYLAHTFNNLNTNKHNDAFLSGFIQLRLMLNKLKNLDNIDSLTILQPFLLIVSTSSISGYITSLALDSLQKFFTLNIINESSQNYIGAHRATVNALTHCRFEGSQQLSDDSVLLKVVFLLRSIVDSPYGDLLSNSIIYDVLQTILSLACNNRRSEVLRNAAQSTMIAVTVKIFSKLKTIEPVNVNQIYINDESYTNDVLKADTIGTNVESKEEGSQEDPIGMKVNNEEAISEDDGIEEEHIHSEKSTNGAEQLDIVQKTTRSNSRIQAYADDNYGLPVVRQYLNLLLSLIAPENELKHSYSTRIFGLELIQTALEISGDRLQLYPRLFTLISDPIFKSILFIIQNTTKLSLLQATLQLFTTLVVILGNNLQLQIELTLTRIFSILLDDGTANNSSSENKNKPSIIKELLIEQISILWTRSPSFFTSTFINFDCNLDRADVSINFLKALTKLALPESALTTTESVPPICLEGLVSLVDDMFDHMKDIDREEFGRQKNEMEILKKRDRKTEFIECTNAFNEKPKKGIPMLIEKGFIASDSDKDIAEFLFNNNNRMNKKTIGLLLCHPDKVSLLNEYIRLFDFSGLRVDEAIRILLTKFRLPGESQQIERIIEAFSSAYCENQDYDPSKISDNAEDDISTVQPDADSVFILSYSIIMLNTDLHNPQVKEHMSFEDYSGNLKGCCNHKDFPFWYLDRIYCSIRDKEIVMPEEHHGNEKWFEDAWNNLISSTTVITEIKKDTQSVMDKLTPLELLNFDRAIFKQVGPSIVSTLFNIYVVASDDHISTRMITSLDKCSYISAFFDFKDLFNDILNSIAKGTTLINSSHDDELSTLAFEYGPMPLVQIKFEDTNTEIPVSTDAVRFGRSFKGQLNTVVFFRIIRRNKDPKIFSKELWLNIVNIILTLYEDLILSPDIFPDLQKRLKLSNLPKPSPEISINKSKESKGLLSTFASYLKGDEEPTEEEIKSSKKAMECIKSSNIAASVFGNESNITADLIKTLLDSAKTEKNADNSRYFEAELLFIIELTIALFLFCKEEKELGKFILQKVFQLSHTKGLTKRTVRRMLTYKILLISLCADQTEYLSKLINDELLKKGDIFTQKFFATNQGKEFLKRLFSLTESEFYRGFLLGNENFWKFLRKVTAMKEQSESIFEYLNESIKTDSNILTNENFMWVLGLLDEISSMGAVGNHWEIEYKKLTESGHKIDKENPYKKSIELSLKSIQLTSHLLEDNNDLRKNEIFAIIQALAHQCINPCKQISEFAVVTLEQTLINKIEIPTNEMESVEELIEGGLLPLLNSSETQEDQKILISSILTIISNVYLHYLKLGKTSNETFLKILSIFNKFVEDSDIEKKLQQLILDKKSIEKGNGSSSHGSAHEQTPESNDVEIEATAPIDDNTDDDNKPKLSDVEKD
As to the kind of experiment: co-IP; Gea2-3xFLAG and Arl1-3xHA co-expressed in gea2∆arl1∆ yeast; lysate (20 mM HEPES pH 7.2, 100 mM KCl, 5 mM MgCl2, 1% Triton X-100, 5 mM EDTA, 10% glycerol) on anti-FLAG M2 magnetic beads overnight at 4 °C; anti-HA blot.

For assay [2], the target named is T2, 3xFLAG tagged Gea2 L79A (S. cerevisiae) (UniProt P39993).
T2 sequence: T1 sequence with A71P, L79A
The assay is described as above.

B1: 3xHA tagged WT Arl1 (protein, UniProt P38116 1-183)
chain: MGNIFSSMFDKLWGSNKELRILILGLDGAGKTTILYRLQIGEVVTTKPTIGFNVETLSYKNLKLNVWDLGGQTSIRPYWRCYYADTAAVIFVVDSTDKDRMSTASKELHLMLQEEELQDAALLVFANKQDQPGALSASEVSKELNLVELKDRSWSIVASSAIKGEGITEGLDWLIDVIKEEQL
On to B1, for which the binding entry in assay [1] and in assay [2] was “binds” in each case.
